According to patent US7112685B2, “Labeled resiniferatoxin derivatives” (Ortho-McNeil Pharmaceutical, Inc., priority 2000, dated 2006):
Some results were stated once for a whole list of compounds, not compound by compound.

By UniProt entry, the sequences of proteins in these tests, tags left out.
UniProt Q8NER1, whole entry: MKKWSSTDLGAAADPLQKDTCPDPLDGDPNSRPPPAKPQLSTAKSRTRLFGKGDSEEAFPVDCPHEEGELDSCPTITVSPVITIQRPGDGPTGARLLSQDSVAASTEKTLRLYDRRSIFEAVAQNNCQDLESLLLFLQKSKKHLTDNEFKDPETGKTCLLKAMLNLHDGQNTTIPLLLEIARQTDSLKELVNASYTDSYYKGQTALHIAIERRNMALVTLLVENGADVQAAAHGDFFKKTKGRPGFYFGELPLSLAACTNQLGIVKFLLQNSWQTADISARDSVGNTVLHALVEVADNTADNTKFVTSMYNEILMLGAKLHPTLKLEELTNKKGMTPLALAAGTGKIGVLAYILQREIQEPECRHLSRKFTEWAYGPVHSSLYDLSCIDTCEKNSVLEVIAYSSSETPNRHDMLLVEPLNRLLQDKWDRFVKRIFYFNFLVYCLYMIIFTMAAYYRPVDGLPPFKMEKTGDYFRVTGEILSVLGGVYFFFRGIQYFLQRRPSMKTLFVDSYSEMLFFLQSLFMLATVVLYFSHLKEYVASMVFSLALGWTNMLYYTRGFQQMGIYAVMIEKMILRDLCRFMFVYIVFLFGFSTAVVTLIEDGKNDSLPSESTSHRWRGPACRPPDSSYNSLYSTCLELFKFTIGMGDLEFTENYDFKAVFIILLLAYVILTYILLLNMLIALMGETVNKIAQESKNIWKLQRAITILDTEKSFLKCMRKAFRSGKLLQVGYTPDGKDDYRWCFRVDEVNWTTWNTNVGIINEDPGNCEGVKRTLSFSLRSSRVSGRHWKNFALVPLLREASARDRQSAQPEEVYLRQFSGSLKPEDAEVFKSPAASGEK

Target: T1, hVR1 receptors (Homo sapiens, UniProt Q8NER1)
T1 construct: expressed in transfected cells; host or cells: HEK293 cells (membranes)
Test: [3H] RTX Binding Assay (inhibition of [3H] RTX binding to membranes of HEK293 cells transfected with human VR1)
Details: compared with RTX, from Table 1
Experimental: Iodinated RTX derivatives of the present invention were tested for their ability to inhibit the binding of [^3H] RTX to hVR1 receptors in a [^3H] RTX Binding Assay.
HEK293 cells were transfected with human VRI vanilloid receptors, as described in U.S. patent application Ser. No. 09/292700 to Dubin, A., et. al, filed on Apr. 15, 1999 (herein incorporated by reference), and washed with Hank's Balanced Salt Solution, dissociated with cell dissocation buffer (Sigma), and then centrifuged at 1000 x g for 5 min. Cell pellets were homogenized in cold 20 mM HEPES buffer, pH 7.4, containing 5.8 mM NaCl, 320 mM sucrose, 2 mM MgCl2, […] and 5 mM KCl and centrifuged at 1000 x g for 15 min. The resultant supernate was then centrifuged at 40,000 x g for 15 min. The pelleted membranes were kept in an −80° C. freezer.
The assay procedure was modified from that described in Szallasi, A. and Blumberg, P. M., “[^3H] Resiniferatoxin binding by the vanilloid receptor: specific-related differences, effect of temperature and sulfhydryl reagents” (Naunyn-Schmiedeberg's Arch. Pharmacol., 1993, 347, 84-91). Briefly, about 120 μg protein/ml from membranes were incubated with indicated concentrations of [^3H] RTX in 0.5 ml of the HEPES buffer (pH 7.4) containing 0.25 mg/mL fat acid-free bovine serum albumin at 37° C. for 60 min. […] Bound radioactivity was quantified by scintillation counting. […]

Row | Compound | affinity for binding to hVR1 receptors relative to a RTX derivative (times greater)
1 | C=C(C)C12CC(C)C34OC(Cc5ccccc5)(OC1C3C=C(COC(=O)Cc1cc(OC)c(O)cc1I)CC1(O)C(=O)C(C)=CC14)O2 (centres unmarked) [Compound 2, 9,13,14-Orthophenylacetylresiniferonyl-20-(3-hydroxy-4-methoxy-6-iodophenylacetate)] | 3 to 4 times
2 | C=C(C)C12CC(C)C34OC(Cc5ccccc5)(OC1C3C=C(COC(=O)Cc1cc(OC)c(OC(C)=O)cc1I)CC1(O)C(=O)C(C)=CC14)O2 (centres unmarked) [Compound 1, 9,13,14-Orthophenylacetylresiniferonyl-20-(3-acetoxy-4-methoxy-6-Iodophenylacetate)] | 3 to 4 times
